Test results from paper PMC7524730.

The chains behind the UniProt entries cited, without tags or fusion partners.
UniProt Q09028: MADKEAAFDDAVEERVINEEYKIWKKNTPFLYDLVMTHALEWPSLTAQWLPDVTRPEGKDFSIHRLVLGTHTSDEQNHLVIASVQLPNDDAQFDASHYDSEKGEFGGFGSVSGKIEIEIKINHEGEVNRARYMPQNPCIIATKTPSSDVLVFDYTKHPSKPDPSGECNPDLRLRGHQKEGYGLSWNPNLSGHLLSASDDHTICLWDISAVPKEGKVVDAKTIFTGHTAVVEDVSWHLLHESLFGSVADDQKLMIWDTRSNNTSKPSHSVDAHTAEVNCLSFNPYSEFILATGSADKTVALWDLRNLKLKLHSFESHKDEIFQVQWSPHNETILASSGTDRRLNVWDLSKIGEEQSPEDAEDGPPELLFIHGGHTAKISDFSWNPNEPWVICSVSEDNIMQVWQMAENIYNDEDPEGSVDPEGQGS
UniProt O14744: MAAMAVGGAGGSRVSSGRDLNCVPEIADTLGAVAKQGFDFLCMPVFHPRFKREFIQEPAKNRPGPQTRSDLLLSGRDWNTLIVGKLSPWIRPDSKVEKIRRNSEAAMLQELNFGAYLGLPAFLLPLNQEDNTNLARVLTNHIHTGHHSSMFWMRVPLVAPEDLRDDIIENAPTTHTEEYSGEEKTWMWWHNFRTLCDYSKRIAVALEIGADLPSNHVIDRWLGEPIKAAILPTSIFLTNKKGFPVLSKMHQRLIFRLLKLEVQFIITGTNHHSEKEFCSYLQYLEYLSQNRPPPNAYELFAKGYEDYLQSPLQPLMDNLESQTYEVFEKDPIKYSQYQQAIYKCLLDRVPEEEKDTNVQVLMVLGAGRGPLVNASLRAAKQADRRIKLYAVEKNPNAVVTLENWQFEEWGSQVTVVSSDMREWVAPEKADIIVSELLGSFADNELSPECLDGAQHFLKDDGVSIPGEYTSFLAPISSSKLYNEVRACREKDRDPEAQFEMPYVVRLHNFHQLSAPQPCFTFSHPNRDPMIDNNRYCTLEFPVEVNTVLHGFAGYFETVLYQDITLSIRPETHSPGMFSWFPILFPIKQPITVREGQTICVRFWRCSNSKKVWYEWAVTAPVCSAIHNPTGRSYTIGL
UniProt P28482: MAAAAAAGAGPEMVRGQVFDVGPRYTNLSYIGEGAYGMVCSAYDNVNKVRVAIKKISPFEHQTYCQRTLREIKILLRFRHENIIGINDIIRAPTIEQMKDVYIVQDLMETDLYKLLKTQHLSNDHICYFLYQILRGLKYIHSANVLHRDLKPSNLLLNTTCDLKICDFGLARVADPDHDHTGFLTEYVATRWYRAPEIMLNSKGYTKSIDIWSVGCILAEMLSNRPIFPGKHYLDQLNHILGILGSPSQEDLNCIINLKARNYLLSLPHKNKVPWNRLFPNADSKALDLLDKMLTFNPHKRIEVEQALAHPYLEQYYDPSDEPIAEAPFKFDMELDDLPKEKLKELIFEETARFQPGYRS
UniProt O14929: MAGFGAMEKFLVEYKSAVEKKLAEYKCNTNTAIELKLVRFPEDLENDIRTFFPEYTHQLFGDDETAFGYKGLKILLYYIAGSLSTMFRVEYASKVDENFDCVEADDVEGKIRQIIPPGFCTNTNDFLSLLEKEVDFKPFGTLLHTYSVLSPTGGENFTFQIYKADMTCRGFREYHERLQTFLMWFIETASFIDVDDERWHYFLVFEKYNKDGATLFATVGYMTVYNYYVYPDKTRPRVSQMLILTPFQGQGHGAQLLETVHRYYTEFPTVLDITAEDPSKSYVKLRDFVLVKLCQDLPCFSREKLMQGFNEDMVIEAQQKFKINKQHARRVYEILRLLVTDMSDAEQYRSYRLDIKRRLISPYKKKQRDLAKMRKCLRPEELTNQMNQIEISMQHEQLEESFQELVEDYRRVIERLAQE

T1: Lymphoid-specific helicase (LSH), expressed in 293T cells (human) (UniProt Q9NRZ9)
T1 sequence: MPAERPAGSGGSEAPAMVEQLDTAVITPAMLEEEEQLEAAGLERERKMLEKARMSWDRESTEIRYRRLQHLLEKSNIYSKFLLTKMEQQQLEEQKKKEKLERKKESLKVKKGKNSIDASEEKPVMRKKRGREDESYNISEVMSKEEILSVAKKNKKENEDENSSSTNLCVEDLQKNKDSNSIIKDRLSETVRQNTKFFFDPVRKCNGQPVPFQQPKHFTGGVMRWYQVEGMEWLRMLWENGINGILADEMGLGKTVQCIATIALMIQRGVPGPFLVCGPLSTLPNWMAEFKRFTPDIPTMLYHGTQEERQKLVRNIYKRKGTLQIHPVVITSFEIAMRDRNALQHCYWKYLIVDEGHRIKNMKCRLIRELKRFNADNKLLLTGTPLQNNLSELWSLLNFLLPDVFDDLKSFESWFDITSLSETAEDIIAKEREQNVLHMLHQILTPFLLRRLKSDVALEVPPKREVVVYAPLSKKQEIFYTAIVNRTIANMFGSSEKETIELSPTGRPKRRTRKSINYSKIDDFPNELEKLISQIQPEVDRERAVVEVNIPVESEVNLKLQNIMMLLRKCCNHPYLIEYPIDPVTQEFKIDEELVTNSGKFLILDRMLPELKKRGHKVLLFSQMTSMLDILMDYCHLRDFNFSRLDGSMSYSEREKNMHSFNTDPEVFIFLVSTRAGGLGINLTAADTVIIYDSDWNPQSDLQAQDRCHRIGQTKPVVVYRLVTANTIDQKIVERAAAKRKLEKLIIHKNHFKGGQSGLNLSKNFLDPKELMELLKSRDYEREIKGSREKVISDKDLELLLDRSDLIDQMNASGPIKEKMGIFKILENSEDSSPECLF

B1: minichromosome maintenance 3 (MCM3) (protein, UniProt P25205 1-808)
chain: MAGTVVLDDVELREAQRDYLDFLDDEEDQGIYQSKVRELISDNQYRLIVNVNDLRRKNEKRANRLLNNAFEELVAFQRALKDFVASIDATYAKQYEEFYVGLEGSFGSKHVSPRTLTSCFLSCVVCVEGIVTKCSLVRPKVVRSVHYCPATKKTIERRYSDLTTLVAFPSSSVYPTKDEENNPLETEYGLSVYKDHQTITIQEMPEKAPAGQLPRSVDVILDDDLVDKAKPGDRVQVVGTYRCLPGKKGGYTSGTFRTVLIACNVKQMSKDAQPSFSAEDIAKIKKFSKTRSKDIFDQLAKSLAPSIHGHDYVKKAILCLLLGGVERDLENGSHIRGDINILLIGDPSVAKSQLLRYVLCTAPRAIPTTGRGSSGVGLTAAVTTDQETGERRLEAGAMVLADRGVVCIDEFDKMSDMDRTAIHEVMEQGRVTIAKAGIHARLNARCSVLAAANPVYGRYDQYKTPMENIGLQDSLLSRFDLLFIMLDQMDPEQDREISDHVLRMHRYRAPGEQDGDAMPLGSAVDILATDDPNFSQEDQQDTQIYEKHDNLLHGTKKKKEKMVSAAFMKKYIHVAKIIKPVLTQESATYIAEEYSRLRSQDSMSSDTARTSPVTARTLETLIRLATAHAKARMSKTVDLQDAEEAVELVQYAYFKKVLEKEKKRKKRSEDESETEDEEEKSQEDQEQKRKRRKTRQPDAKDGDSYDPYDFSDTEEEMPQVHTPKTADSQETKESQKVELSESRLKAFKVALLDVFREAHAQSIGMNRLTESINRDSEEPFSSVEIQAALSKMQDDNQVMVSEGIIFLI

What follows are molecules tested against T1, Lymphoid-specific helicase (LSH), expressed in 293T cells (human) (assay: affinity purification with mass spectrometry; IP with an anti-LSH antibody from 293T cells stably expressing LSH, then mass spectrometry).

binding, binds:
RB binding protein 4 (RBBP4) (from UniProt Q09028 1-425)
Protein arginine methyltransferase 5 (PRMT5), in 293T cells expressing LSH (from UniProt O14744 1-637) (enzyme)
MAPK1 (from UniProt P28482 1-360) (enzyme)
histone acetyltransferase 1 (HAT1) (from UniProt O14929 1-419) (enzyme)
B1

No constants are given. Whether binding was seen depends on the method and setting. Binding seen in cells or lysates may run through a third protein. Here binding means that the protein was enriched with, or labelled near, the bait; the list need not be complete.
